Measurements published in paper PMC7819943, “Rice protein-binding microarrays: a tool to detect cis-acting elements near promoter regions in rice”.
Some of the results follow.

Sequences of proteins named here, by UniProt entry; tags and fusion partners are left off.
UniProt Q0JBA9, entry or part of it: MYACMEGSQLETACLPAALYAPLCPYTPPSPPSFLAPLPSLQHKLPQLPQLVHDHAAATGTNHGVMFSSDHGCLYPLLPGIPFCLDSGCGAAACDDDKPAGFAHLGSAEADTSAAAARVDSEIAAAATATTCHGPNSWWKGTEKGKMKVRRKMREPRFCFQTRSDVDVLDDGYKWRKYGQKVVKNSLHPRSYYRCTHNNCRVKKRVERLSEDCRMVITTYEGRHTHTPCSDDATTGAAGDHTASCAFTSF

Molecular target: OsWRKY34 (Oryza sativa, UniProt Q0JBA9 1-250)
Experiment: protein-binding microarray (RPBM); PBS, 2% BSA, 51.3 ng/ul salmon testes DNA, 50 uM zinc acetate, 200 nM TF, 25 C, 1 h; high values mean tight binding
Conditions: protein: recombinant; tags: N-terminal polyhistidine and DsRed monomer fusion (pET32a); label: CyDye5-dUTP incorporated in the synthesized complementary strand; 3' TTTTT single-stranded linker to array surface; dsDNA, one strand shown
Method in brief: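 Binding signal here means per-feature fluorescence intensity in arbitrary units. The values were read on an Axon 4000B scanner after a custom Agilent array, double-stranded by primer extension with Cy5-dUTP, was incubated with 200 nM protein at 25 °C for 1 h in PBS with 2% BSA, salmon testes DNA and 50 µM zinc acetate, then washed. The proteins were transcription factors with an N-terminal polyhistidine tag and DsRed, expressed in E. coli BL21-CodonPlus and purified on Ni–NTA.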

Sequence	binding signal
AGTCTCTTTGACTTTTTACTAGTTAAAATTTGACCAAGTTCGGAGTCACCTAGTGCAG	13600 fluorescence intensity (a.u.)
GTTGCCGTACACCTGCAGCTTTGGAAGCTTCCAGTTAATACGGAGTCACCTAGTGCAG	9680 fluorescence intensity (a.u.)
GCTATACATCCGCTTGTTTGTTTCTCACTATCCTCGTTTGCGGAGTCACCTAGTGCAG	13400 fluorescence intensity (a.u.)
TCCCTCTAAACGATCTTTTTTGTGCGATTTCTTTTTCAAACGGAGTCACCTAGTGCAG	8380 fluorescence intensity (a.u.)
TTAAACTGTCATACATACATAACTTTTCAGTCACATCGTACGGAGTCACCTAGTGCAG	9490 fluorescence intensity (a.u.)
TTTATCTCTCTTCTCTCTGTTTTTCCGTGTCAGCAAATATCGGAGTCACCTAGTGCAG	11400 fluorescence intensity (a.u.)
ACACGGATATAACACTATATCTAGATTCGTTCGTTGTACTCGGAGTCACCTAGTGCAG	9810 fluorescence intensity (a.u.)
CTTCTCTGCCCGCCGATCTGCCTCGCCACGCGGTTCGTCGCGGAGTCACCTAGTGCAG	9520 fluorescence intensity (a.u.)
GACCACTGCTGCTTGCGACGCCGTCCTCCTCCCGCATCGCCGGAGTCACCTAGTGCAG	9000 fluorescence intensity (a.u.)
CTACCGTTGACTTTGGTTGGGCCACATCTTCAGAGGTCAACGGAGTCACCTAGTGCAG	15700 fluorescence intensity (a.u.)
TGTGAATCACTCTATAGTTTTGGATCATCGCAGCTTAAACCGGAGTCACCTAGTGCAG	8350 fluorescence intensity (a.u.)
GTCTTTGTTGTTTTGTGGAATAAATTTCCTGCAGATTGTCCGGAGTCACCTAGTGCAG	8240 fluorescence intensity (a.u.)
TACCATCAAATTTGCGTGTCTCAACTTTTTTACCACTCAACGGAGTCACCTAGTGCAG	8320 fluorescence intensity (a.u.)
GTATTTAGGCCACAAGGATGATGCTACACTCTGCTTACTACGGAGTCACCTAGTGCAG	9120 fluorescence intensity (a.u.)
GTTTTCCTTTTTTTTTTTTACCGATTGTCCAATTCAAGTTCGGAGTCACCTAGTGCAG	9390 fluorescence intensity (a.u.)
ATTCCCATTTTGCACGTATAGACAGTTAATCAAGATCATTCGGAGTCACCTAGTGCAG	10700 fluorescence intensity (a.u.)
GCGTCCTTTGCGTCCTTTTGCTGCTCCGTCCTCCATGATCCGGAGTCACCTAGTGCAG	8050 fluorescence intensity (a.u.)
TTTATACATTGTGGTTGCTCTAGGGGTGTGCAAAATAGTTCGGAGTCACCTAGTGCAG	12400 fluorescence intensity (a.u.)
CCTCTCTCTCTCTCTCTCTCTCTCGCTCGCTTGCTTTACCCGGAGTCACCTAGTGCAG	9800 fluorescence intensity (a.u.)
CTTCTCCACGGCTTCTATGGTTGGCGTCGCCCGATAAGACCGGAGTCACCTAGTGCAG	9720 fluorescence intensity (a.u.)
CGTCTCGCTTTCCCAGCCGATTTATTTCTAACGATGAAATCGGAGTCACCTAGTGCAG	9450 fluorescence intensity (a.u.)

Sequence	binding signal
TTTCCTCTCTCTCTCTCCCAGCCCGCACTCCCTTTCTCTCCGGAGTCACCTAGTGCAG	8780 fluorescence intensity (a.u.)
CCACGCTATCGATTTCCTCTTTTTTTTTGCCACCCTCGTCCGGAGTCACCTAGTGCAG	11300 fluorescence intensity (a.u.)
CACCTTTGACCTTTCCAACCTAATTAATTAGCTACTACCCCGGAGTCACCTAGTGCAG	8620 fluorescence intensity (a.u.)
CCGGCCCCGCCGCCCGCCCGCACCGCTCCTCATTCCGTCGCGGAGTCACCTAGTGCAG	8480 fluorescence intensity (a.u.)
ATGCCATTTTTAACCTTACCAAGTTTTAGTAAAGTTGCCACGGAGTCACCTAGTGCAG	8600 fluorescence intensity (a.u.)
CACGAGTGTTCACGTCGACCATAATGGCACCACCACCCCGCGGAGTCACCTAGTGCAG	9370 fluorescence intensity (a.u.)
TCCATTAGTCTCCAGCTATACGCATCTTCCCTAGCTTGCTCGGAGTCACCTAGTGCAG	8810 fluorescence intensity (a.u.)
AATCTAACTCACCAAACCCATCTTTATCATATATAATCTTCGGAGTCACCTAGTGCAG	8210 fluorescence intensity (a.u.)
TCCCTCCGTTTCGTATTATAAGTCTCTTTGACTTTTTACTCGGAGTCACCTAGTGCAG	11000 fluorescence intensity (a.u.)
GTGCGGACTGCCTGCCCTCTTTCCCATTTTGCCCCTGTTTCGGAGTCACCTAGTGCAG	8690 fluorescence intensity (a.u.)
CATCCTGTTGGCCGAAGCCGGTATTGCTCTTATTCACCATCGGAGTCACCTAGTGCAG	10600 fluorescence intensity (a.u.)
GACATATCTCCTCGTTGTTTGCATGTCACTTAAATGATTACGGAGTCACCTAGTGCAG	10300 fluorescence intensity (a.u.)
AGATTCCGACGACAGCAAAGACAGCGACGGGAGGGGAGGGCGGAGTCACCTAGTGCAG	9790 fluorescence intensity (a.u.)
TCCCCTAGCTCTCTCTCGTCCACCTCGGGTTCCAACCGCACGGAGTCACCTAGTGCAG	9420 fluorescence intensity (a.u.)
AAGAGGGCGCGGGTGGCGGGGATGGGCGAGGGGAAGGCGGCGGAGTCACCTAGTGCAG	17700 fluorescence intensity (a.u.)
GCCGTATTGGATCGCCCTGCATATCTTGTCCCTGGCCTCGCGGAGTCACCTAGTGCAG	8780 fluorescence intensity (a.u.)
CTGCCAGCCGTATAAACCTCTTCGGATCTTGTTGGTAGTACGGAGTCACCTAGTGCAG	8630 fluorescence intensity (a.u.)
GATGCAGGATTCAGGATGGGTATTCAGATTTATCAAATGACGGAGTCACCTAGTGCAG	8500 fluorescence intensity (a.u.)
CGCGCTTCTGCCGCTGCCCGACCCTATTACCCAAGCCCATCGGAGTCACCTAGTGCAG	8120 fluorescence intensity (a.u.)
ATCCGCGTGCATCCACTCTACTTATATCGTTCTTTTTTCCCGGAGTCACCTAGTGCAG	12500 fluorescence intensity (a.u.)
TAGATAGGGGATGTATAGGACAAGAGAGAACACATGCATTCGGAGTCACCTAGTGCAG	8690 fluorescence intensity (a.u.)

Sequence	binding signal
ATTAACTCGAAGTTTTAATATTGACCATGCCATCCTTGATCGGAGTCACCTAGTGCAG	10200 fluorescence intensity (a.u.)
AATACTGAGTACTCTTCCCATGTAAATATTTTTGAACTCTCGGAGTCACCTAGTGCAG	10700 fluorescence intensity (a.u.)
CGCCGCCGGCTTCTGTCTCTCTCCCCGCGCTCACTTGCTGCGGAGTCACCTAGTGCAG	9500 fluorescence intensity (a.u.)
CTCTCTCTTTTTCTACCAGAGGAGTCAAACGCTTTTTTTTCGGAGTCACCTAGTGCAG	8650 fluorescence intensity (a.u.)
AACATTTTTTTCAAGTTCTTAGCTTTTATTTAATTAATTACGGAGTCACCTAGTGCAG	8130 fluorescence intensity (a.u.)
AAGGGGCCTAAATTTTCGGTTTTAGTTTGTTTTTTTCTATCGGAGTCACCTAGTGCAG	8590 fluorescence intensity (a.u.)
AGACGCATCTTCGCTTTTTGCCTCGGCGTCGGTGCTCCACCGGAGTCACCTAGTGCAG	8050 fluorescence intensity (a.u.)
ACTGGTGGCCGGGTATGCTTCTCTCTCTTAGTTTCATTAGCGGAGTCACCTAGTGCAG	9590 fluorescence intensity (a.u.)
TAGCCTAGCTCACCCATCCCATCCTCGAGCCAACGCAACACGGAGTCACCTAGTGCAG	8180 fluorescence intensity (a.u.)
GCCTCTCCGATGCGCAATTGACTGGTGGGTGACAATGACCCGGAGTCACCTAGTGCAG	8540 fluorescence intensity (a.u.)
TGCTCCGCCGCCGCCGTTCCCACTCCTTCTCCGTCGCCTTCGGAGTCACCTAGTGCAG	8530 fluorescence intensity (a.u.)
GGACCCTCTCTTGTTTTTCTTCGTTGCTCGCGAGCTCTTCCGGAGTCACCTAGTGCAG	8900 fluorescence intensity (a.u.)
TACTACTCTCGTGTGGCAAAATTTTGTCTTAGTTCTTGAACGGAGTCACCTAGTGCAG	8100 fluorescence intensity (a.u.)
CGATCTCTCTCTCTCACACACCCGCCTCACCCTCACCGCCCGGAGTCACCTAGTGCAG	10800 fluorescence intensity (a.u.)
TATTTGTCATTCGCTGTCTATGACATATGAGCCCTCATGTCGGAGTCACCTAGTGCAG	8280 fluorescence intensity (a.u.)
ACCAAACTAATTTTCTCATTTATGCCGTCGTTACATTGTTCGGAGTCACCTAGTGCAG	10900 fluorescence intensity (a.u.)
ACTATTATCATCCTCTCTCGTTTTTTTAGGACGGTTTTTGCGGAGTCACCTAGTGCAG	9660 fluorescence intensity (a.u.)
TTGATATTTTCATCACTATGAAGTACTTCCTCCGTTTCACCGGAGTCACCTAGTGCAG	9610 fluorescence intensity (a.u.)
CATAATTTCCTTTCTCACCGGGCCACTCTCCACACCCGCTCGGAGTCACCTAGTGCAG	8080 fluorescence intensity (a.u.)
CTTACTATACTATTAATATATGGTCACACATGTCATACACCGGAGTCACCTAGTGCAG	10000 fluorescence intensity (a.u.)
ATTTTATCCAACGTTTGACCATTCGTCTTATATAAAATATCGGAGTCACCTAGTGCAG	9960 fluorescence intensity (a.u.)

Sequence	binding signal
GGGATGTTGTATCTGCTTATTTGCGGTCTATGAACGAATTCGGAGTCACCTAGTGCAG	10400 fluorescence intensity (a.u.)
ACTCCAGTCCAGTCCAGTCCAGCGCACTCCTCACTCAACACGGAGTCACCTAGTGCAG	9300 fluorescence intensity (a.u.)
GTTCCCAGAATTTTAGCACTACCACCTACAAGTTCCAATCCGGAGTCACCTAGTGCAG	8160 fluorescence intensity (a.u.)
GGAGGAGGTGGAGGCGCTGCTGGTGGTGGAGGCCGTGGTGCGGAGTCACCTAGTGCAG	8020 fluorescence intensity (a.u.)
ATGTGACGTCCCACGTGCGCCTCGCCTCCACCTCCACCGCCGGAGTCACCTAGTGCAG	8560 fluorescence intensity (a.u.)
TTATAAGTTATTGGTGGCTTCAGTTGTTTTCATATATGTGCGGAGTCACCTAGTGCAG	8060 fluorescence intensity (a.u.)
CTCTCGAACAACCGCCGGAGCCAACCACCGCCGCCGCGCCCGGAGTCACCTAGTGCAG	9600 fluorescence intensity (a.u.)
GCACCGGGTGCCTGGGTCCTGTGTTGTGTATTGTGTTTATCGGAGTCACCTAGTGCAG	9170 fluorescence intensity (a.u.)
TGCGCCCCATCTGTCAATGTGGTTCTCAGGCAACTGTTCTCGGAGTCACCTAGTGCAG	8990 fluorescence intensity (a.u.)
CTCTCATAACATTTTGCTCTTTATCTCTTTATATTTTTCTCGGAGTCACCTAGTGCAG	12800 fluorescence intensity (a.u.)
ATATCCTACTTTGATTCGGTCGTCTTTAGTACGTTTCTCCCGGAGTCACCTAGTGCAG	11200 fluorescence intensity (a.u.)
GCCATGGCATTCGCGGATCACCACCTGCACATCCCGGACACGGAGTCACCTAGTGCAG	9820 fluorescence intensity (a.u.)
GGACTTGCAACAATTACAGTTCTGCTCTATAACAGCACATCGGAGTCACCTAGTGCAG	8550 fluorescence intensity (a.u.)
GCGTTTCTGCTCTGTCTGTCTCCTTTGGCCTTTCTCAGTTCGGAGTCACCTAGTGCAG	15100 fluorescence intensity (a.u.)
ATTATTATTTACTTTTTTGTGACTTACTTTATTATCCAAACGGAGTCACCTAGTGCAG	8260 fluorescence intensity (a.u.)
GGAGAGTAGCAGTGTGGTTGATGATGGTGTTCTTGCTACTCGGAGTCACCTAGTGCAG	9890 fluorescence intensity (a.u.)
TTCTCCTGCTCCCGCCGCATTCGCTCACCGACACCGGTGACGGAGTCACCTAGTGCAG	16000 fluorescence intensity (a.u.)
CCCACCAGGCCACCAAACTCTCTCGGGCCGAAACGGTCAACGGAGTCACCTAGTGCAG	8380 fluorescence intensity (a.u.)
CTTTTCCAACTTCAACTCACCTGTTTTTCGCGCGCACGTTCGGAGTCACCTAGTGCAG	10500 fluorescence intensity (a.u.)
CGTCGGTGTGATTGATGGTGGTTTTGTTGTCTGATGATGACGGAGTCACCTAGTGCAG	9740 fluorescence intensity (a.u.)
GGTGGAGGTTGTCGTCCCTCCAAACACACGCGCGCGCAACCGGAGTCACCTAGTGCAG	9130 fluorescence intensity (a.u.)

Retrieved one by one from the list above:
Sequence	binding signal
CTCTCGAACAACCGCCGGAGCCAACCACCGCCGCCGCGCCCGGAGTCACCTAGTGCAG	9600 fluorescence intensity (a.u.)
GGACTTGCAACAATTACAGTTCTGCTCTATAACAGCACATCGGAGTCACCTAGTGCAG	8550 fluorescence intensity (a.u.)
CTTTTCCAACTTCAACTCACCTGTTTTTCGCGCGCACGTTCGGAGTCACCTAGTGCAG	10500 fluorescence intensity (a.u.)
GCACCGGGTGCCTGGGTCCTGTGTTGTGTATTGTGTTTATCGGAGTCACCTAGTGCAG	9170 fluorescence intensity (a.u.)
CCCACCAGGCCACCAAACTCTCTCGGGCCGAAACGGTCAACGGAGTCACCTAGTGCAG	8380 fluorescence intensity (a.u.)
